Source: patent publication US20220089646A1 (THE UNIVERSITY OF QUEENSLAND, priority 2019, published 2022)

Assay: general procedure: Fmoc solid-phase peptide synthesis; Rink amide AM resin (0.60 meq/g); Rink amide resin (0.100 g, loading capacity 0.34 mmol/g); Oxyma Pure/DIC; HBTU/DIPEA for DP-7-11 and DP-7-12
Details: whole synthesis, 219 nm

Row | Substance | final HPLC purity [%]
1 | PEPTIDE1{Y.G.G.F.L.R.R.I.R.P.K.[am]}$$$$V2.0 | 98.4
2 | PEPTIDE1{Y.G.G.F.L.R.R.[am]}$$$$V2.0 | 99.2
3 | c(Tyr-Gly-Gly-Phe-D(Asp)-Arg-SSa-Ile-Arg-Pro-Lys) | 88.2

Same assay, conditions: whole synthesis, analytical RP-HPLC

Row | Substance | final HPLC purity [%]
4 | PEPTIDE1{Y.G.[XAsp2h4ecf53].F.[XSSahebb624].R.R.[am]}$PEPTIDE1,PEPTIDE1,3:R3-5:R3$$$V2.0 | 92.67
5 | PEPTIDE1{Y.G.[XSSahebb624].F.[XAsp4h4ecf53].R.R.[am]}$PEPTIDE1,PEPTIDE1,5:R3-3:R3$$$V2.0 | 90.65
6 | PEPTIDE1{Y.G.[dD].F.[SSa].R.R.[am]}$PEPTIDE1,PEPTIDE1,3:R3-5:R3$$$V2.0 | 91.10
7 | PEPTIDE1{Y.[Sar].[p-Cl-Phe].L.R.[dR].[SSa].D.[am]}$PEPTIDE1,PEPTIDE1,7:R3-8:R3$$$V2.0 | 99.50
8 | PEPTIDE1{Y.[XAsp1h4ecf53].G.F.[XSSahebb624].R.R.[am]}$PEPTIDE1,PEPTIDE1,2:R3-5:R3$$$V2.0 | 94.71
9 | PEPTIDE1{Y.[XSSahebb624].G.F.[XAsp4h4ecf53].R.R.[am]}$PEPTIDE1,PEPTIDE1,5:R3-2:R3$$$V2.0 | 98.55
10 | PEPTIDE1{Y.[XSarh5118e0].[XClFh65aecc].L.R.[XNMAh0fabbf].[XSSahebb624].R.[XAsp8h4ecf53].K.[am]}$PEPTIDE1,PEPTIDE1,9:R3-7:R3$$$V2.0 | 93.77
11 | PEPTIDE1{Y.[XSarh5118e0].[XClFh65aecc].L.R.[dR].[XSSahebb624].R.[XAsp8h4ecf53].K.[am]}$PEPTIDE1,PEPTIDE1,9:R3-7:R3$$$V2.0 | 97.53
12 | PEPTIDE1{Y.[XSarh5118e0].[XNO2Fh644d83].L.R.[XNMAh0fabbf].[XSSahebb624].R.[XAsp8h4ecf53].K.[am]}$PEPTIDE1,PEPTIDE1,9:R3-7:R3$$$V2.0 | 96.77
13 | c(Tyr-Gly-SSa-Phe-D(Asp)-Arg-Arg) | 88.51
14 | c(Tyr-Sar(p-NO2-Phe)-Leu-Arg-D(Arg)-SSa-Arg-D(Asp)-Lys | 97.95
15 | c(Tyr-Sar-(p-NO2-Phe)-Leu-Arg-NMA-D(Asp)-D(Arg)-SSa-D(Lys)) | 99.25

Some peptides are written in HELM: one residue between dots, names in brackets for other building blocks, links after the first $.
